Publication PMC7862700
The entries are a selection whose mix differs from that of the whole data set. For part of these data: At the low end of the ranking the order means little. This is one part of the list. For part of these data: The source does not settle which construct or isoform was used.

Protein sequences, listed by entry. Tags and fused reporters are not part of them. Lines headed by an entry give the natural chain unless they say otherwise; changes in a name come on top.
UniProt Q00613: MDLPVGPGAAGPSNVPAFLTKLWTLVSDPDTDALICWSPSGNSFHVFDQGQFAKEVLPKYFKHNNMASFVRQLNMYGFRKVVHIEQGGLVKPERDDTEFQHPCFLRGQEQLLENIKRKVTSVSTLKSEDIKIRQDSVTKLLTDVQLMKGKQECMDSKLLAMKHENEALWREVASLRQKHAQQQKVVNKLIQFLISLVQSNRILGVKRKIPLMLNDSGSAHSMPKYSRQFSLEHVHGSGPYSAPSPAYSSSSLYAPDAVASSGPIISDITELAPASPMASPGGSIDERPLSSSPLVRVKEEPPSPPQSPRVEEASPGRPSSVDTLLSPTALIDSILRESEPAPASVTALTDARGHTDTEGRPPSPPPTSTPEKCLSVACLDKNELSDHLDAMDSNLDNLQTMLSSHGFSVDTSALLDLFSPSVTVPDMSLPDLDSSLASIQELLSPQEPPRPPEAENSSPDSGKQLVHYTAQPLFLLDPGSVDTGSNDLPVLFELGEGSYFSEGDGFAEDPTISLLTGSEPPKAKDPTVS

The sequences below were run against HSF1 (UniProt Q00613) (assay: DAPPL (digital affinity profiling via proximity ligation, sequencing)). Details: 10 mM Tris-HCl pH 7.5, 50 mM NaCl, 1 mM DTT, 4% glycerol, room temperature, 30 min; GST-TFs on glutathione beads, 16-mer random dsDNA library, 0.1% …; high values mean tight binding; double strand, one strand shown; scale: fold enrichment (6-mer frequency, TF over GST control).

Question: TTCGAA was tested. Which binding signal did it give?
Answer: 1.93

Question: How did the binding signal turn out when GATCTT was run?
Answer: 1.62

Question: How did the binding signal turn out when ATACCG was run?
Answer: 0.825

Question: CGATTC was tested. Which binding signal did it give?
Answer: 1.35

Question: Which binding signal does the source give for AATACA here?
Answer: 1.25

Question: For AAAGGT, which binding signal is on record?
Answer: 1.02

Question: For GGTTTT, which binding signal is on record?
Answer: 0.993

Question: With ATCCGA as the sequence, how does the binding signal read?
Answer: 1.56

Question: How did the binding signal turn out when CCGGTA was run?
Answer: 0.871

Question: For CCTCAC, which binding signal is on record?
Answer: 0.97

Question: For CGTCCG, which binding signal is on record?
Answer: 0.81

Question: GTTCAT was tested. Which binding signal did it give?
Answer: 0.986

Question: How did the binding signal turn out when TTAACG was run?
Answer: 1.73

Question: Which binding signal does the source give for CGATTT here?
Answer: 1.38

Question: For CTGCAC, which binding signal is on record?
Answer: 0.957

Question: TATGAA was tested. Which binding signal did it give?
Answer: 1.21

Question: For TTTATG, which binding signal is on record?
Answer: 1.37

Question: GCATCC was tested. Which binding signal did it give?
Answer: 0.797

Question: With CACAAT as the sequence, how does the binding signal read?
Answer: 0.965

Question: For TGAACC, which binding signal is on record?
Answer: 0.965

Question: How did the binding signal turn out when CAAGGT was run?
Answer: 0.938

Question: For CGAATA, which binding signal is on record?
Answer: 1.87

Question: With CGTTAC as the sequence, how does the binding signal read?
Answer: 0.899

Question: For CTACGA, which binding signal is on record?
Answer: 1.25

Question: Which binding signal does the source give for GCCTCC here?
Answer: 0.999

Question: Which binding signal does the source give for GCTGAT here?
Answer: 1.16

Question: Which binding signal does the source give for TTCTCC here?
Answer: 1.98

Question: Which binding signal does the source give for TCGACC here?
Answer: 1.23

Question: Which binding signal does the source give for TCACAT here?
Answer: 0.998

Question: How did the binding signal turn out when TGTTCA was run?
Answer: 1.09

Question: CTCTAG was tested. Which binding signal did it give?
Answer: 2.39

Question: Which binding signal does the source give for GGTCCC here?
Answer: 0.798

Question: For GAACAC, which binding signal is on record?
Answer: 1.21

Question: With TTAGGG as the sequence, how does the binding signal read?
Answer: 1.48

Question: For ACATTG, which binding signal is on record?
Answer: 0.953

Question: How did the binding signal turn out when CTCAGA was run?
Answer: 1.17

Question: How did the binding signal turn out when AATTGG was run?
Answer: 1.2

Question: For AAGTCA, which binding signal is on record?
Answer: 0.966

Question: GTACTC was tested. Which binding signal did it give?
Answer: 0.958

What follows are sequences tested against T1, ELF2 (UniProt Q15723) in the same assay as above. Details: 10 mM Tris-HCl pH 7.5, 50 mM NaCl, 1 mM DTT, 4% glycerol, room temperature, 30 min; GST-TFs on glutathione beads, 16-mer random dsDNA library, 0.1% …; high values mean tight binding; double strand, one strand shown; scale: fold enrichment (6-mer frequency, TF over GST control).
T1 sequence: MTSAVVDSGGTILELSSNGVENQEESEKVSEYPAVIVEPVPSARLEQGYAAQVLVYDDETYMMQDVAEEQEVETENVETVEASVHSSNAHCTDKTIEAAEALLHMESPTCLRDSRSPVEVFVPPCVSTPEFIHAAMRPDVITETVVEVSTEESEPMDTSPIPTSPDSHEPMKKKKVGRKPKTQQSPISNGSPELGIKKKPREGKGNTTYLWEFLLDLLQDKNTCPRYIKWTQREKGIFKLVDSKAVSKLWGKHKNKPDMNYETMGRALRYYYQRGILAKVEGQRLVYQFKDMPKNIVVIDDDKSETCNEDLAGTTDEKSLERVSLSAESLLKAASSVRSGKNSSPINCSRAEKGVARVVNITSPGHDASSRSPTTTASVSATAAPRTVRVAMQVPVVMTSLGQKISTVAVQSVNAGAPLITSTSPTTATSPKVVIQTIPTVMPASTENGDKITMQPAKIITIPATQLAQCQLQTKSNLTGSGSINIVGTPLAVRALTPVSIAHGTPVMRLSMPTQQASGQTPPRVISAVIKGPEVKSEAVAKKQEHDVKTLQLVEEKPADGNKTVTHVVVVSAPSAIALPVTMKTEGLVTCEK

Question: With TTCGAA as the sequence, how does the binding signal read?
Answer: 1.18

Question: Which binding signal does the source give for GATCTT here?
Answer: 1.24

Question: With ATACCG as the sequence, how does the binding signal read?
Answer: 1.27

Question: With CGATTC as the sequence, how does the binding signal read?
Answer: 1.14

Question: For AATACA, which binding signal is on record?
Answer: 1.37

Question: Which binding signal does the source give for AAAGGT here?
Answer: 1.02

Question: With GGTTTT as the sequence, how does the binding signal read?
Answer: 1.12

Question: For ATCCGA, which binding signal is on record?
Answer: 1.18

Question: For CCGGTA, which binding signal is on record?
Answer: 1.93

Question: How did the binding signal turn out when CCTCAC was run?
Answer: 1.17

Question: CGTCCG was tested. Which binding signal did it give?
Answer: 1.43

Question: How did the binding signal turn out when GTTCAT was run?
Answer: 1.11

Question: With TTAACG as the sequence, how does the binding signal read?
Answer: 1.12

Question: For CGATTT, which binding signal is on record?
Answer: 1.24

Question: With CTGCAC as the sequence, how does the binding signal read?
Answer: 1.15

Question: TATGAA was tested. Which binding signal did it give?
Answer: 1.11

Question: Which binding signal does the source give for TTTATG here?
Answer: 1.28

Question: How did the binding signal turn out when GCATCC was run?
Answer: 1.68

Question: For CACAAT, which binding signal is on record?
Answer: 1.1

Question: For TGAACC, which binding signal is on record?
Answer: 1.13

Question: Which binding signal does the source give for CAAGGT here?
Answer: 0.991

Question: For CGAATA, which binding signal is on record?
Answer: 1.16

Question: How did the binding signal turn out when CGTTAC was run?
Answer: 1.1

Question: Which binding signal does the source give for CTACGA here?
Answer: 1.22

Question: How did the binding signal turn out when GCCTCC was run?
Answer: 1.27

Question: For GCTGAT, which binding signal is on record?
Answer: 1.11

Question: Which binding signal does the source give for TTCTCC here?
Answer: 1.52

Question: Which binding signal does the source give for TCGACC here?
Answer: 1.19

Question: For TCACAT, which binding signal is on record?
Answer: 1.24

Question: How did the binding signal turn out when TGTTCA was run?
Answer: 1.16

Question: CTCTAG was tested. Which binding signal did it give?
Answer: 1.22

Question: GGTCCC was tested. Which binding signal did it give?
Answer: 1.09

Question: For GAACAC, which binding signal is on record?
Answer: 1.14

Question: TTAGGG was tested. Which binding signal did it give?
Answer: 1.11

Question: Which binding signal does the source give for ACATTG here?
Answer: 1.08

Question: How did the binding signal turn out when CTCAGA was run?
Answer: 1.04

Question: AATTGG was tested. Which binding signal did it give?
Answer: 1.35

Question: AAGTCA was tested. Which binding signal did it give?
Answer: 1.25

Question: For GTACTC, which binding signal is on record?
Answer: 1.07
